Measurements published in publication PMC9756947, “Structural basis of transcription regulation by CNC family transcription factor, Nrf2” (Nucleic Acids Research, 2022).
Construct, isoform or probe ends are uncertain for at least one entry. A weaker result is weaker than the reference pair of the same experiment. Tags and fusion partners may be left off the protein sequences shown.

Amino acid sequences for entries named in this document (tags omitted). A change or cut given only in a name is not applied to a line headed by its entry.
UniProt Q16236: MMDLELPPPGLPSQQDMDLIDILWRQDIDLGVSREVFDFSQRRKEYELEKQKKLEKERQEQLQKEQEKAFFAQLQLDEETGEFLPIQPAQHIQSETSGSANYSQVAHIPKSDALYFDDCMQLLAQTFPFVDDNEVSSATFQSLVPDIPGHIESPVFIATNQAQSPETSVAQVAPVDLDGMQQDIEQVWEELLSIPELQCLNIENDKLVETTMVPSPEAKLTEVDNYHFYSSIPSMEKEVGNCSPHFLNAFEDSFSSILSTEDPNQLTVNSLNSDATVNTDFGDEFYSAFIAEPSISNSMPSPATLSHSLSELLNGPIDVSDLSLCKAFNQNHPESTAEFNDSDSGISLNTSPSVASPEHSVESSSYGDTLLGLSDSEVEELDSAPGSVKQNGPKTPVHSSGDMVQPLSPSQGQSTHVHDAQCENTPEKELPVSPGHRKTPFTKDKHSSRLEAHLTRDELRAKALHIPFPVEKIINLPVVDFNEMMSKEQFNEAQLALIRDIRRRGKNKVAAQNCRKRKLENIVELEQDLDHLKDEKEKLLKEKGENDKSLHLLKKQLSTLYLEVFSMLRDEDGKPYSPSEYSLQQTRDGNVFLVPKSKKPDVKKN

Target: T1, Nrf2 long fragment, wild type (Homo sapiens) (UniProt Q16236)
T1 sequence: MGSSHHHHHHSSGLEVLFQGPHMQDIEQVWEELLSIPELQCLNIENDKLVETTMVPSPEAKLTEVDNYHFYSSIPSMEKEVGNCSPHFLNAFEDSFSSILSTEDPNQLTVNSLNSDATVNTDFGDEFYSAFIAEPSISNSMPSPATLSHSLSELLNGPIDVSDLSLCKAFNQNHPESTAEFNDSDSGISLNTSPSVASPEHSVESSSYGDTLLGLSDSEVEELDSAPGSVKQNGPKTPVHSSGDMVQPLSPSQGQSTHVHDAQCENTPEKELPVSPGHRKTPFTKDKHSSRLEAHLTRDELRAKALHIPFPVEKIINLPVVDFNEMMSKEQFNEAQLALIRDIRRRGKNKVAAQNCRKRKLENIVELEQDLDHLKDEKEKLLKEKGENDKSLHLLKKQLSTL
Test: EMSA
Settings: no MafG, shifted band at 256 nM Nrf2, possibly homodimer; EMSA: 20 mM Tris-HCl pH 7.2, 150 mM KCl, 10 mM DTT, 8 mg/ml BSA, 0.005% Tween 20, 50 ng/ml poly(dI-dC), 2.5% Ficoll; probe ~1.6 pM; 16 h (30 min for Jun-Fos); recombinant protein; protein details: N-terminal His6 (not removed); label: 32P 5' end

“CCGCAGTCACAGTGACTCAGCAGAATCTGA / CTCAGATTCTGCTGAGTCACTGTGACTGCG [EMSA CsMBE probe]”: binds more weakly.
